# Test results published in US20070197432A1, “Peptides for preventing, diagnosing and treating animal and/or human leptospirosis” (priority 2002, published 2007).
# No end group written: not given here.
# System: IgM and IgG antibodies in dog sera
# Experiment: Diagnostic ELISA of dog sera against PP peptide or recombinant PPL protein
# Type: binding
# Details: sera from SPF dogs immunized against leptospirosis (3039, 3051, 3058)
sequence,measurement,value
"KAKPVQKLDDDDDGDDTYKEERHNK [PP peptide, 25 amino acid peptide, fragment aa153-aa177 of the PPL protein of Leptospira interrogans]","IgG response against the antigen, OD",< 0.25
